Measured values: patent US20020142359A1 (AstraZeneca / MedImmune, published 2002)
These are yes or no findings as the source states them, for the method shown. Some results given as binding are weak or reduced against the parent protein; the word gives no strength.

Amino acid sequences for entries named in this document (tags omitted). Residues count along the entry.
UniProt P06731, residues 35-685: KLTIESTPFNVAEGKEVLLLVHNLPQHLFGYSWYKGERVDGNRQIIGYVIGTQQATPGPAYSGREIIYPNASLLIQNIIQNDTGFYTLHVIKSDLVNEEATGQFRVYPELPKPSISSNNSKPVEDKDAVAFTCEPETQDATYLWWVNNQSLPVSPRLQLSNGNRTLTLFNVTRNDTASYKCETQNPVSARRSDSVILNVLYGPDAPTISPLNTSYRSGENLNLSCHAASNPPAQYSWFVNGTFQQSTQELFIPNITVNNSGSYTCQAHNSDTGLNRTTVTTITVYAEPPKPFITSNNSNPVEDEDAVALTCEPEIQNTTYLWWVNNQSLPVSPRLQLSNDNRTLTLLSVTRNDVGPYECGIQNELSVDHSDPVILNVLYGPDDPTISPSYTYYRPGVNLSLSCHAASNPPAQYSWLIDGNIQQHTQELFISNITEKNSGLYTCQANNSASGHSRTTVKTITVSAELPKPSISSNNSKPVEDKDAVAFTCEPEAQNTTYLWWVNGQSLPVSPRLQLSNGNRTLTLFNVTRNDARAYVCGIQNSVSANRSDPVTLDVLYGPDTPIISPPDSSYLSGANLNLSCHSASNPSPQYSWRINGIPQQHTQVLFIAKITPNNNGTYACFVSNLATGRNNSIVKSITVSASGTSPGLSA

Biological target: CEA (Carcinoembryonic antigen), purified antigen (UniProt P06731)
Assay: CEA ELISA on NS0 culture supernatants (Example 44)

binding: binds
B1: humanised 806.077 HuVH1/HuVK3 HuIgG3 F(ab')2 (antibody, V domains shown)
VH: EVQLQQSGPGLVRPSQTLSLTCTASGFNIKDNYMHWVRQPPGRGLEWIGWIDPENGDTEYAPKFRGRVTMLADTSKNQFSLRLSSVTAADTAVYYCHVLIYAGYLAMDYWGQGTLVTVSS
VL: QIVLTQSPSSLSASVGDRVTITCSASSSVTYMHWYQQKPGKAPKLLIYSTSNLASGVPSRFSGSGSGTDYTFTISSLQPEDIATYYCQQRSTYPLTFGQGTKLEIKR
